The supplement of paper PMC3334620
Whole data set: some 33,000 sequences, median “E-score (-0.5 to 0.5)” near -0.0014, cut for the highest 2% near 0.25. Some of the results follow.

target: T1, Cad1 (UniProt P24813); assay: PBM E-score (8-mer binding enrichment) (E-score (-0.5 to 0.5)); higher = stronger / more preferred TF binding; details: protein concentration: 100 nM; construct: GST-full length
T1 sequence: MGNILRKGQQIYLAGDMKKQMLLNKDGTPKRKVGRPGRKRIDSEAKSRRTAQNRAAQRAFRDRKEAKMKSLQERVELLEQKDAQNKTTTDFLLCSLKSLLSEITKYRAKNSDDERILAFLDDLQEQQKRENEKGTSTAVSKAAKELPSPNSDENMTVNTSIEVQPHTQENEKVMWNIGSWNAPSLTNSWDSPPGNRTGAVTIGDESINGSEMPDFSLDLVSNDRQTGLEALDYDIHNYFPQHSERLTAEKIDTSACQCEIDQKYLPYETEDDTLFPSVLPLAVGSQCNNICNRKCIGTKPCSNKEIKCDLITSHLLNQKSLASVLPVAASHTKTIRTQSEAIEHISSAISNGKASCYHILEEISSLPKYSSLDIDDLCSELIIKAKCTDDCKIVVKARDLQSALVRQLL
Summary of the method: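 For each ungapped eight-base word taken together with its reverse complement, the Universal PBM Analysis Suite assigned an E-score. Binding data came from GST-tagged yeast transcription factors, applied at about 100-200 nM, on universal all-10-mer Agilent arrays made double-stranded by primer extension. Fluorescent anti-GST marked bound protein, and scans were normalised with masliner.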

| Sequence | PBM E-score |
| --- | --- |
| ATGTGGCC | -0.0491 |
| AGTGTGGC | 0.119 |
| AGAAGGAG | -0.228 |
| ATGGCCGG | -0.0669 |
| CCCGCTCA | -0.116 |
| GAGTGATA | 0.17 |
| AACGCCAA | 0.00194 |
| AGCAATCG | 0.27 |
| CAATTGGG | -0.0709 |
| GACTGGCA | -0.152 |
| ACCCAATC | -0.0256 |
| AGAACCAA | -0.131 |
| AGGATTGA | 0.101 |
| CTGGGCGC | -0.141 |
| ACTCACAC | -0.0995 |
| AACAGAGG | -0.145 |
| GTCCAAAC | -0.263 |
| CGTACGTC | -0.112 |
| GTACCATA | -0.158 |
| AGAGGTTG | -0.229 |
| AAATAGAC | 0.0409 |
| AAGCAACA | 0.0972 |

| Sequence | PBM E-score |
| --- | --- |
| CAGGGTGC | -0.3 |
| CCGTCCGC | -0.116 |
| GATGAGAA | 0.108 |
| ATAAAGCG | 0.149 |
| AGTTCGCG | 0.00326 |
| GGGCCGAA | -0.0979 |
| AAACTTGT | 0.112 |
| CGATCTCA | 0.0727 |
| ATCCGCAT | 0.105 |
| CTAGAACC | -0.136 |
| CATGAAGC | -0.0276 |
| AACGCCCG | 0.059 |
| ACATTGCA | 0.00028 |
| ACGTTCTG | 0.041 |
| CCCCGAGG | -0.225 |
| CGGTTAGA | 0.058 |
| GCTCGAAC | 0.123 |
| AGTCAAGG | -0.0898 |
| ACACTTAC | 0.108 |
| CCAGGACA | 0.0769 |
| TATGTTGA | 0.0773 |
| GACGTCCA | 0.0674 |

| Sequence | PBM E-score |
| --- | --- |
| ACGCAATA | 0.184 |
| GATGGTCC | -0.119 |
| GGCTCCAC | -0.182 |
| GCGAGGAA | 0.0172 |
| ATTTGTAA | 0.411 |
| CAGCCCTA | 0.147 |
| AATATATA | 0.244 |
| CTAACAGC | -0.0641 |
| TCGTCCCA | 0.0795 |
| ATAGCCGA | 0.0529 |
| AACGCAGT | -0.0676 |
| GGGATCTA | -0.138 |
| GGGTTCAC | 0.0111 |
| GAGTATCC | -0.0156 |
| ATGCTGTA | 0.114 |
| CATAGACC | -0.0068 |
| GAGTATCA | -0.045 |
| TCGCATCA | 0.0674 |
| CAGTAGTA | 0.00735 |
| ATGATCAG | 0.026 |
| CTCAGTGA | -0.138 |
| AAGTGCTC | -0.189 |

| Sequence | PBM E-score |
| --- | --- |
| GCTGTAGA | -0.0692 |
| ACAATTCT | 0.0787 |
| ACCACCAA | -0.0937 |
| ATGTGAAA | 0.0841 |
| CTTGTAAA | 0.0275 |
| GCAGGGAA | 0.0366 |
| CTTCTACA | -0.151 |
| CGCCAACA | 0.157 |
| GGGGAGGA | -0.117 |
| AAAACCGT | 0.069 |
| AATCGGAA | 0.211 |
| AGCTTCCT | 0.177 |
| AGTAATGG | 0.144 |
| ATGGTTGG | -0.0997 |
| GAACCTTA | 0.127 |
| AGGACCCG | -0.169 |
| ATTTCGTG | 0.202 |
| ATCCACGC | 0.00304 |
| GTAATGAC | 0.133 |
| GTTTTACA | -0.156 |
| CTCTATTC | -0.00496 |
| CTTCTCAA | -0.089 |

Some of the entries so far, in CSV form:
Sequence,PBM E-score
CTCAGTGA,-0.138
GCTGTAGA,-0.0692
ACAATTCT,0.0787
ACCACCAA,-0.0937
ATGTGAAA,0.0841
CTTGTAAA,0.0275
GCAGGGAA,0.0366
CTTCTACA,-0.151
GGGGAGGA,-0.117
AAAACCGT,0.069
AATCGGAA,0.211
AGCTTCCT,0.177
AGTAATGG,0.144
ATGGTTGG,-0.0997
GAACCTTA,0.127
AGGACCCG,-0.169
ATTTCGTG,0.202
GTAATGAC,0.133
GTTTTACA,-0.156
CTCTATTC,-0.00496
CTTCTCAA,-0.089

Three entries drawn at random from the list so far:

| Sequence | PBM E-score |
| --- | --- |
| ATAGCCGA | 0.0529 |
| ATGTGAAA | 0.0841 |
| AACGCAGT | -0.0676 |

Next results follow.

| Sequence | PBM E-score |
| --- | --- |
| ACGTGCTA | -0.0919 |
| CACTGCGA | 0.0309 |
| CAATTCGC | 0.322 |
| GTAAGAGA | -0.125 |
| CTGGGTTC | -0.0104 |
| AGGAGACA | -0.0212 |
| ACCTTTAT | -0.152 |
| GCGTACCC | -0.157 |
| GTCTAAGA | 0.151 |
| GTAGGTTA | -0.0515 |
| GCATCGGC | -0.0762 |
| GGCGGAGA | 0.0169 |
| CGCGTTGA | 0.158 |
| CCGAAGAC | -0.0256 |
| GGAAGCCC | -0.23 |
| CTCTAGCC | -0.152 |
| ATCCAGGC | -0.127 |
| AACCCGAG | 0.122 |
| CTCGCCGC | 0.106 |
| CGTAGAGA | -0.0362 |
| ACCGGAGA | 0.0736 |
| GCCCTCAA | -0.256 |
